Assay results reported in the supplement of paper PMC10849652.
This is one part of the list.

Amino acid sequences for entries named in this document (tags omitted). A change or cut given only in a name is not applied to a line headed by its entry.
UniProt Q9ULH0: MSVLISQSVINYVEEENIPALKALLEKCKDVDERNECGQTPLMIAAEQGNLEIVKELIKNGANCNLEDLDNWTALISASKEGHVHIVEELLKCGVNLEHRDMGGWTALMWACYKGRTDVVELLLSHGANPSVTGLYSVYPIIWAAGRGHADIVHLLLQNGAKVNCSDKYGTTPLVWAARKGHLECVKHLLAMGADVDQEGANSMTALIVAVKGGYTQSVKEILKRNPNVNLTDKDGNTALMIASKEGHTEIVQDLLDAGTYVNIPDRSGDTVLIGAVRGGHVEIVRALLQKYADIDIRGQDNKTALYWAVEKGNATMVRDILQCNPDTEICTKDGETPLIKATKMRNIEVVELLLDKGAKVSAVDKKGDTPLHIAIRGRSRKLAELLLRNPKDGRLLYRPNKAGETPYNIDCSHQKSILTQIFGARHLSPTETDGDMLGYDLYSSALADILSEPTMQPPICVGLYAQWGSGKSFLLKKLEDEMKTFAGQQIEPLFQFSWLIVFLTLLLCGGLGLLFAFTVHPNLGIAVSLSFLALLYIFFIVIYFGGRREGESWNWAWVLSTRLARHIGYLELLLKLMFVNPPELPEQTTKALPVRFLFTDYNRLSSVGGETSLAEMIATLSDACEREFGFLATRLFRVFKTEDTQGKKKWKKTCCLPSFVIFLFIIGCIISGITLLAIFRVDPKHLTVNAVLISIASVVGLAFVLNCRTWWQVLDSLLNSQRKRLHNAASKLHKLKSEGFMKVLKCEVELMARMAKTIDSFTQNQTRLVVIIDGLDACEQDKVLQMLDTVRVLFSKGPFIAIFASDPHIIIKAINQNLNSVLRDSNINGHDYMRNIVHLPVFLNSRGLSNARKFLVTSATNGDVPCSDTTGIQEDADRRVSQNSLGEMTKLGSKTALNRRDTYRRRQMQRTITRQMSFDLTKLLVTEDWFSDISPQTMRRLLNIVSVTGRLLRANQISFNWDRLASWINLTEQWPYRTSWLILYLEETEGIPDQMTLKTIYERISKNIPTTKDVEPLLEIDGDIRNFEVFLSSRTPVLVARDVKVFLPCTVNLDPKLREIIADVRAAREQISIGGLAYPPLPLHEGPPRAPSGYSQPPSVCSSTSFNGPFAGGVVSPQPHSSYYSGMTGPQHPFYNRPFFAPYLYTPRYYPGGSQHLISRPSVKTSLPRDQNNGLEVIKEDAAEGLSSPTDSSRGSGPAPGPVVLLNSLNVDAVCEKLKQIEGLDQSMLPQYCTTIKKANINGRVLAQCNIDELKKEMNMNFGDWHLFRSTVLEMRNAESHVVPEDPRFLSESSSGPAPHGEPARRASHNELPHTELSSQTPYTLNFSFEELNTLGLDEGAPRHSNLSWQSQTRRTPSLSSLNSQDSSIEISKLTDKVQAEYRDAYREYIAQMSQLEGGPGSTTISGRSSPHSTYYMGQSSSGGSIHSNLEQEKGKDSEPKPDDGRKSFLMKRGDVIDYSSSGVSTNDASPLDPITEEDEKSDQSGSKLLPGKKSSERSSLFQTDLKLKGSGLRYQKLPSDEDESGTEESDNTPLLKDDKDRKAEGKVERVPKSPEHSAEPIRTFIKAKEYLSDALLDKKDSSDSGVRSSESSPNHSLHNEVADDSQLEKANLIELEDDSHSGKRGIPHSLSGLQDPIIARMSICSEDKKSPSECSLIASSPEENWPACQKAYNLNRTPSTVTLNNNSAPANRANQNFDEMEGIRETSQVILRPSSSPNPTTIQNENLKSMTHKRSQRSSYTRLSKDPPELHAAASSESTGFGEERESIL
UniProt Q9BXK1: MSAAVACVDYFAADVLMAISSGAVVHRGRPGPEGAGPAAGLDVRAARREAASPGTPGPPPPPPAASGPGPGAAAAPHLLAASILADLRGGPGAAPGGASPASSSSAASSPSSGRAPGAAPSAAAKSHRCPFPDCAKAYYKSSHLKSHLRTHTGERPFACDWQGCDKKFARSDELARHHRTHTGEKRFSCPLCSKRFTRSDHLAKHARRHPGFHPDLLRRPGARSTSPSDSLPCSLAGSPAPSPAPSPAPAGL
UniProt Q13351: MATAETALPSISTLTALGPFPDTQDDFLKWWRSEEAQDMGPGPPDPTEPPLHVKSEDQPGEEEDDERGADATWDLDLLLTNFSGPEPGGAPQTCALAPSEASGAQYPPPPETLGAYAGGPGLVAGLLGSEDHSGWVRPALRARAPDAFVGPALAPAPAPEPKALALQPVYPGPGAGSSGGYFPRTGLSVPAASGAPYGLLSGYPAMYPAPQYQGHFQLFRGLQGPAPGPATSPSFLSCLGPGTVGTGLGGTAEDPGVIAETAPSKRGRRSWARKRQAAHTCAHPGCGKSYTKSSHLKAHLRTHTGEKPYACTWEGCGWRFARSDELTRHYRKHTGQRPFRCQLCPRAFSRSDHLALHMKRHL
UniProt O00139: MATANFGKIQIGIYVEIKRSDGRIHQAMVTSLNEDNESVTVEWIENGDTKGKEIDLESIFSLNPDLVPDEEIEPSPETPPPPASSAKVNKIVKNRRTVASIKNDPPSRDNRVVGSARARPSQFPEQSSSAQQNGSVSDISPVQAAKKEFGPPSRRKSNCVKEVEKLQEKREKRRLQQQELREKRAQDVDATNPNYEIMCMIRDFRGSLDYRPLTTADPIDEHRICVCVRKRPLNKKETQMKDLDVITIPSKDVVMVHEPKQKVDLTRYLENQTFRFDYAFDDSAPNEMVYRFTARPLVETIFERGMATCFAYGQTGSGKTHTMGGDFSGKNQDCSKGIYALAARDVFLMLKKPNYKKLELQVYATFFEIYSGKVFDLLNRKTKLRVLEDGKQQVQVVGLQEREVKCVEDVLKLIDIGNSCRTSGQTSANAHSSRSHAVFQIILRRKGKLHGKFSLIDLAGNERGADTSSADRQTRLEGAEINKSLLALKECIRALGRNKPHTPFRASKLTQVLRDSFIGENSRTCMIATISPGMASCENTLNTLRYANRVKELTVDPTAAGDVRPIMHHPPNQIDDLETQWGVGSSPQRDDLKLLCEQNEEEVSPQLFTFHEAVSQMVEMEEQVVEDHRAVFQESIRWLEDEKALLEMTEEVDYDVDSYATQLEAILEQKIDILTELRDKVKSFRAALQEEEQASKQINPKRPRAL
UniProt Q2M2Z5: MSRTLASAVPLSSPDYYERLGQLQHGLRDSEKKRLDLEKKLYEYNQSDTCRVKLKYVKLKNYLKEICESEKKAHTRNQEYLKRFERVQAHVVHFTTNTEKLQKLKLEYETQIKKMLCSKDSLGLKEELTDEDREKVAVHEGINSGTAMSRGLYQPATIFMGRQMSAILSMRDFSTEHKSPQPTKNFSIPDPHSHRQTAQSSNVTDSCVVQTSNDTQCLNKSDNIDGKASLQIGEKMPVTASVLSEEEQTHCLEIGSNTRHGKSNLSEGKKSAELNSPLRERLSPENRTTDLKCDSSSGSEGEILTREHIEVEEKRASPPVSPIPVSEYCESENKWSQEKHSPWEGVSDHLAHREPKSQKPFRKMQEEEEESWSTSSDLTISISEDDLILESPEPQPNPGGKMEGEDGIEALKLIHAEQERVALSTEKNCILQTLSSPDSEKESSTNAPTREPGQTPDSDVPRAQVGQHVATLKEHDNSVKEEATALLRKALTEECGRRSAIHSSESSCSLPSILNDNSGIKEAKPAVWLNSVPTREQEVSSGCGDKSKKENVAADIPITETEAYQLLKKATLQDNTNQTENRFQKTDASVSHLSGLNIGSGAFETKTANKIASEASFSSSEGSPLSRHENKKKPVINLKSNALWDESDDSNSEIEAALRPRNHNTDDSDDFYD
UniProt P07288: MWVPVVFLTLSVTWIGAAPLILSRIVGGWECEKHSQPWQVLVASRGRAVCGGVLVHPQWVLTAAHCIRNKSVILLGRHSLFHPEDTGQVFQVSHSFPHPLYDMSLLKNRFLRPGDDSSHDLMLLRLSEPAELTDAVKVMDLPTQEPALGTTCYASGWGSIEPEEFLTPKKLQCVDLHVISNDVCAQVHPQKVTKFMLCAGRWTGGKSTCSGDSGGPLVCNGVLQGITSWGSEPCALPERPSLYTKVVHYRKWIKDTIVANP
UniProt O15037: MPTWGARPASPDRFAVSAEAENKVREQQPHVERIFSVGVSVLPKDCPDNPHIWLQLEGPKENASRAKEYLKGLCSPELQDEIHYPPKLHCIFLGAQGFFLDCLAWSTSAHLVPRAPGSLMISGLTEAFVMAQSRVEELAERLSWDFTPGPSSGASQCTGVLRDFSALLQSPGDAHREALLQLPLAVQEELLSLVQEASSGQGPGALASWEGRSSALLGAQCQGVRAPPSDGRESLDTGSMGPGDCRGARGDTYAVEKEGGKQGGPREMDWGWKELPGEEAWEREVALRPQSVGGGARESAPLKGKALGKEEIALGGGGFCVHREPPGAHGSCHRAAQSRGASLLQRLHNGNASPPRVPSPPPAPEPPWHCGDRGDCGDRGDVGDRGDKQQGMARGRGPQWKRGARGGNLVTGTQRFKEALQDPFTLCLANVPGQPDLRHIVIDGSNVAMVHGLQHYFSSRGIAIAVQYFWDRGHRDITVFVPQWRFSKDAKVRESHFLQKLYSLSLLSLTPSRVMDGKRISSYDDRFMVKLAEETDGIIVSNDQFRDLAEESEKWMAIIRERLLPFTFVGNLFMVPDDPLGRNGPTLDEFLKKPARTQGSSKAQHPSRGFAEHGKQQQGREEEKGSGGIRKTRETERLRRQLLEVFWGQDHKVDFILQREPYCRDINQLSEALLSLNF
UniProt Q969F8, whole entry, looked up: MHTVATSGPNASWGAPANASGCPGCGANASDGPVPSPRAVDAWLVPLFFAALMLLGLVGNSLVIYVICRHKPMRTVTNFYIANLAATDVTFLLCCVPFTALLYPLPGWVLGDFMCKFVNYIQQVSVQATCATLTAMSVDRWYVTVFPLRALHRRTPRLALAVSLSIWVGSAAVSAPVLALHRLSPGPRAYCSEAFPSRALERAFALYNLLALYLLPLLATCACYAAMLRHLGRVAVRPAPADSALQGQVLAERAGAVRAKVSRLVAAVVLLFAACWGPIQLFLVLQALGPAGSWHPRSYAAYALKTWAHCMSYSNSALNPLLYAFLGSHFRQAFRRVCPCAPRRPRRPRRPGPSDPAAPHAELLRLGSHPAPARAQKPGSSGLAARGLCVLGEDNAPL
UniProt Q86VI4: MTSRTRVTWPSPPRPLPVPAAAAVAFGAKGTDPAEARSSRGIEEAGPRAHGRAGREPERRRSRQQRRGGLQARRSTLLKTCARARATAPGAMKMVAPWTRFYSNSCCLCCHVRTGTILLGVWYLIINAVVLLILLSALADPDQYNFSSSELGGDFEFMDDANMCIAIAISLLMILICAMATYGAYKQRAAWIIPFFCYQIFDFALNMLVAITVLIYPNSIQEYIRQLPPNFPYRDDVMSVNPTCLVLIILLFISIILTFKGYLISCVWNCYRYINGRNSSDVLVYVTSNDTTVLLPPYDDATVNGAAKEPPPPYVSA
UniProt Q9Y2U9: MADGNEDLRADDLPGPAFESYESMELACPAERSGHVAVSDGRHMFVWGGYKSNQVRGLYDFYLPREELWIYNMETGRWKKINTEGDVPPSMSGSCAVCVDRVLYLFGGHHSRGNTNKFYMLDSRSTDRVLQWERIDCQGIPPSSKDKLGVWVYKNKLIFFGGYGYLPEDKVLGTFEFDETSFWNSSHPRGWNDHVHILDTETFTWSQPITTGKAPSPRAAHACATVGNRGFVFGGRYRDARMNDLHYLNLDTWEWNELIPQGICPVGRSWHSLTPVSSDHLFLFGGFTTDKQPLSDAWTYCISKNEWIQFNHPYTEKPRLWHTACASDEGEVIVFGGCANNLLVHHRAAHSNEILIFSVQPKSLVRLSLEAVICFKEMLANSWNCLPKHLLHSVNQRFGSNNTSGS
UniProt Q969R5, whole entry, looked up: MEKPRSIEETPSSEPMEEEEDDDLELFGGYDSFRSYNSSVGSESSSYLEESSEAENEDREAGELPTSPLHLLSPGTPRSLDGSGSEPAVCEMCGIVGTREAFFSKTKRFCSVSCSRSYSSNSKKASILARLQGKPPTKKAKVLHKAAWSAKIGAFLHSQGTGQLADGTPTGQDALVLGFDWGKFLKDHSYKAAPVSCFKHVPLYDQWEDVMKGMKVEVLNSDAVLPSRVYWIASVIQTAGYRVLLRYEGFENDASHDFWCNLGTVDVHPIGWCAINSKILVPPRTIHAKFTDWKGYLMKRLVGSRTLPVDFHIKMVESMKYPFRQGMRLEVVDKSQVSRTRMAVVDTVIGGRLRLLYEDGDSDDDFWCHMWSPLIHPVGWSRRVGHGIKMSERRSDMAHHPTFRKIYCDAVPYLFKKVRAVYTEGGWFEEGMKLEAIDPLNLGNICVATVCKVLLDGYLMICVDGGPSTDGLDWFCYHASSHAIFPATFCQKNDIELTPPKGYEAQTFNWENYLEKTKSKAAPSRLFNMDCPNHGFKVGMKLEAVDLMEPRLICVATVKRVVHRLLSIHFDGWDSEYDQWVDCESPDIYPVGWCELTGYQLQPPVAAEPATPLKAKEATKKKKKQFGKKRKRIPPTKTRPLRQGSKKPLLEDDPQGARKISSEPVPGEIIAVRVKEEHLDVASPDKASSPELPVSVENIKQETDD

Key:
Experiment in all cases: log2 fold change, soluble protein after heating vs DMSO (PISA); higher = thermal stabilisation; K562 lysate, 10 uM; active = over 0.2 and 3.5 SD of the protein, either way, in both replicates (recomputed)
lapatinib = compound: CS(=O)(=O)CCNCc1ccc(-c2ccc3ncnc(Nc4ccc(OCc5cccc(F)c5)c(Cl)c4)c3c2)o1 [lapatinib]
Method in brief: (§1)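 To prepare the extract, K562 pellets were dounce-homogenised in PBS pH 7.4 with 1 mM MgCl2, giving crude material at 1 mg/mL protein. This was treated with 10 μM compound for 30 min, then heated in aliquots for 3 min over 48°C-58°C before pooling and addition of NP-40 to 0.5% at 4°C. Centrifugation at 21,000xg for 90 min left soluble protein in the supernatant, which TMTpro 16plex LC-MS/MS quantified with equalised channel sums. Results are log-two fold changes in thermal stability compared with solvent controls, from duplicates.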

pictilisib = compound: CS(=O)(=O)N1CCN(Cc2cc3nc(-c4cccc5[nH]ncc45)nc(N4CCOCC4)c3s2)CC1 [pictilisib]
Method in brief: as §1

crizotinib = compound: C[C@@H](Oc1cc(-c2cnn(C3CCNCC3)c2)cnc1N)c1c(Cl)ccc(F)c1Cl [crizotinib]
Method in brief: as §1

[1] = compound: C[C@H](C1=CC=C(C=C1)C(=O)NC2=C3C=CNC3=NC=C2)N
Method in brief: as §1

gandotinib = compound: Cc1cc(Nc2cc(CN3CCOCC3)c3nc(C)c(Cc4ccc(Cl)cc4F)n3n2)n[nH]1 [gandotinib]
Method in brief: as §1

tozasertib = compound: Cc1cc(Nc2cc(N3CCN(C)CC3)nc(Sc3ccc(NC(=O)C4CC4)cc3)n2)n[nH]1 [tozasertib]
Method in brief: as §1

doramapimod = compound: Cc1ccc(-n2nc(C(C)(C)C)cc2NC(=O)Nc2ccc(OCCN3CCOCC3)c3ccccc23)cc1 [doramapimod]
Method in brief: as §1

bafetinib = compound: Cc1ccc(NC(=O)c2ccc(CN3CC[C@H](N(C)C)C3)c(C(F)(F)F)c2)cc1Nc1nccc(-c2cncnc2)n1 [bafetinib]
Method in brief: as §1

[2] = compound: Cc1cccc(CC(=O)N2CCc3c2ccc(-c2cn(C)c4ncnc(N)c24)c3F)n1
Method in brief: as §1

duvelisib = compound: C[C@H](Nc1ncnc2nc[nH]c12)c1cc2cccc(Cl)c2c(=O)n1-c1ccccc1 [duvelisib]
Method in brief: as §1

Measured: log2 fold change

KIF3B (UniProt O15066)
inactive: lapatinib -0.016 | pictilisib -0.087 | crizotinib -0.009 | [1] -0.257 | gandotinib 0.126 | tozasertib -0.099 | doramapimod -0.021 | bafetinib -0.12 | [2] 0.004

KIDINS220 isoform 4 (UniProt Q9ULH0)
inactive: lapatinib -0.071 | pictilisib -0.025 | crizotinib -0.007 | [1] -0.032 | duvelisib -0.034 | gandotinib -0.048 | tozasertib 0.055 | doramapimod 0.026 | bafetinib 0.015 | [2] 0.004

KLF16 (UniProt Q9BXK1)
inactive: lapatinib 0.003 | pictilisib -0.03 | crizotinib -0.006 | [1] 0 | duvelisib -0.029 | gandotinib 0.101 | tozasertib -0.244 | doramapimod 0.196 | bafetinib -0.23 | [2] 0.207

KIAA0513 (UniProt O60268)
inactive: lapatinib 0.017 | pictilisib -0.006 | crizotinib -0.002 | [1] -0.009 | duvelisib -0.057 | gandotinib 0.087 | tozasertib -0.039 | doramapimod 0.06 | bafetinib -0.018 | [2] 0.068

LAMP1 (UniProt P11279)
active: [1] -0.496 | gandotinib 0.241
inactive: lapatinib -0.033 | pictilisib -0.014 | crizotinib -0.014 | duvelisib 0.005 | tozasertib -0.05 | doramapimod -0.044 | bafetinib -0.065 | [2] 0.172

KLF1 (UniProt Q13351)
inactive: lapatinib 0.026 | pictilisib 0.053 | bafetinib -0.066

KRIT1 (UniProt O00522)
inactive: lapatinib -0.115 | pictilisib -0.058 | crizotinib -0.07 | duvelisib -0.001 | tozasertib -0.043 | doramapimod 0.016 | bafetinib -0.041

LARP4 isoform 4 (UniProt Q71RC2)
inactive: lapatinib -0.004 | pictilisib -0.021 | crizotinib -0.008 | [1] -0.006 | duvelisib -0.045 | gandotinib -0.03 | tozasertib -0.008 | doramapimod -0.009 | bafetinib 0.005 | [2] 0.089

KRAS (UniProt P01116)
inactive: lapatinib 0.019 | crizotinib 0.017 | [1] -0.078 | duvelisib 0.001 | gandotinib 0.044 | tozasertib -0.013 | doramapimod 0.006 | [2] 0.145

Three successive entries already listed, for reference:
KLF1 (UniProt Q13351)
inactive: lapatinib 0.026 | pictilisib 0.053 | bafetinib -0.066

KRIT1 (UniProt O00522)
inactive: lapatinib -0.115 | pictilisib -0.058 | crizotinib -0.07 | duvelisib -0.001 | tozasertib -0.043 | doramapimod 0.016 | bafetinib -0.041

LARP4 isoform 4 (UniProt Q71RC2)
inactive: lapatinib -0.004 | pictilisib -0.021 | crizotinib -0.008 | [1] -0.006 | duvelisib -0.045 | gandotinib -0.03 | tozasertib -0.008 | doramapimod -0.009 | bafetinib 0.005 | [2] 0.089

The results go on.

KLHL12 isoform 2 (UniProt Q53G59)
inactive: lapatinib 0.023 | pictilisib 0.048 | crizotinib 0.016 | duvelisib 0.084 | doramapimod 0.003 | bafetinib -0.131

KIFC3 isoform 6 (UniProt Q9BVG8)
active: [1] -1.85
inactive: pictilisib -0.127 | crizotinib -0.21 | duvelisib 0.089 | gandotinib 0.111 | tozasertib -0.111 | doramapimod -0.034 | bafetinib -0.221 | [2] 0.296

KIF2A isoform 4 (UniProt O00139)
inactive: lapatinib -0.004 | pictilisib -0.006 | crizotinib -0.004 | [1] 0.026 | duvelisib 0.022 | gandotinib -0.066 | tozasertib 0.01 | doramapimod 0.055 | bafetinib -0.006 | [2] 0.037

KIZ (UniProt Q2M2Z5)
inactive: pictilisib -0.023 | crizotinib 0.014 | [1] -0.01 | duvelisib 0.023 | gandotinib 0.056 | tozasertib 0.061 | doramapimod 0.006 | bafetinib -0.009 | [2] -0.058

KRTCAP2 isoform 2 (UniProt Q8N6L1)
inactive: lapatinib -0.027 | crizotinib -0.013 | [1] -0.239 | duvelisib 0.006 | gandotinib 0.183 | tozasertib -0.101 | doramapimod 0.025 | [2] 0.077

KRAS isoform 2 (UniProt P01116)
inactive: lapatinib -0.023 | crizotinib -0.016 | duvelisib -0.022 | tozasertib -0.043 | doramapimod -0.062

KRR1 (UniProt Q13601)
inactive: lapatinib -0.039 | pictilisib 0.03 | crizotinib -0.228 | [1] 0.05 | duvelisib -0.037 | gandotinib -0.097 | tozasertib -0.038 | doramapimod 0.127 | bafetinib -0.039 | [2] 0.002

KIAA0100 (UniProt Q14667)
inactive: lapatinib -0.011 | pictilisib -0.165 | crizotinib -0.021 | [1] -0.148 | duvelisib -0.017 | gandotinib -0.048 | tozasertib 0.077 | doramapimod 0.079 | bafetinib -0.269 | [2] 0.188

LAMTOR4 (UniProt Q0VGL1)
inactive: lapatinib -0.015 | pictilisib 0 | crizotinib -0.018 | [1] -0.08 | duvelisib 0.013 | gandotinib 0.031 | tozasertib -0.043 | doramapimod 0.008 | bafetinib -0.043 | [2] 0.147

KLC1 isoform 10 (UniProt Q07866)
inactive: pictilisib -0.167 | tozasertib 0.016 | bafetinib 0.032

KMT5A (UniProt Q9NQR1)
inactive: [1] 0.164 | gandotinib -0.187 | [2] -0.256

LAPTM4A (UniProt Q15012)
inactive: duvelisib 0.242

KLHL22 (UniProt Q53GT1)
inactive: [1] 0.065 | duvelisib 0.012 | gandotinib -0.109 | tozasertib -0.07 | [2] 0.031

KIF1B isoform 3 (UniProt O60333)
inactive: pictilisib 0.059 | crizotinib 0.1 | [1] -0.104 | duvelisib -0.006 | gandotinib 0.264 | tozasertib -0.096 | doramapimod 0.023 | bafetinib -0.22 | [2] 0.343

KMT2D (UniProt O14686)
inactive: duvelisib -0.02

LAMP2 isoform 2 (UniProt P13473)
inactive: pictilisib 0.032 | crizotinib 0.121 | [1] 0.164 | gandotinib -0.074 | doramapimod -0.06 | bafetinib 0 | [2] -0.19

KDM4A (UniProt O75164)
inactive: pictilisib -0.043 | crizotinib 0.011 | [1] -0.06 | duvelisib -0.014 | gandotinib -0.015 | tozasertib 0.023 | doramapimod 0.016 | bafetinib -0.014 | [2] 0.056

KDM4C (UniProt Q9H3R0)
inactive: pictilisib -0.205 | [1] 0.054 | duvelisib -0.179 | gandotinib -0.015 | bafetinib 0.087 | [2] -0.155

KIF26A (UniProt Q9ULI4)
inactive: pictilisib 0.039 | crizotinib 0.013 | [1] -0.065 | duvelisib -0.017 | gandotinib 0.003 | tozasertib 0.086 | doramapimod -0.002 | bafetinib -0.055 | [2] 0.002

KLK3 (UniProt P07288)
inactive: duvelisib 0.193

KDM5A (UniProt P29375)
inactive: crizotinib -0.069 | [1] 0.011 | duvelisib -0.11 | gandotinib -0.015 | doramapimod 0.01 | [2] 0.036

KHNYN (UniProt O15037)
inactive: pictilisib -0.034 | crizotinib -0.044 | duvelisib -0.061 | tozasertib 0.012 | doramapimod 0.112 | bafetinib -0.138

LAMB2 (UniProt P55268)
inactive: duvelisib -0.015 | tozasertib 0.089

KRT13 (UniProt K7EMD9)
inactive: pictilisib 0.356 | bafetinib 0.285

KDM4B (UniProt O94953)
inactive: crizotinib 0 | [1] 0.102 | duvelisib 0.153 | gandotinib 0.044 | tozasertib 0.115 | doramapimod 0.082 | [2] 0

KLHL17 (UniProt Q6TDP4)
inactive: pictilisib 0.124 | [1] -0.247 | gandotinib -0.004 | tozasertib 0.021 | bafetinib -0.082 | [2] 0.039

KIFAP3 (UniProt Q92845)
inactive: pictilisib 0.054 | crizotinib -0.03 | [1] -0.019 | duvelisib -0.223 | gandotinib -0.113 | tozasertib -0.332 | doramapimod 0.114 | bafetinib 0.147 | [2] -0.071

KISS1R (UniProt Q969F8)
inactive: crizotinib -0.154 | doramapimod 0.169

LAPTM4B (UniProt Q86VI4)
inactive: pictilisib -0.015 | [1] -0.263 | gandotinib 0.171 | bafetinib -0.038 | [2] 0.217

KLHDC2 (UniProt Q9Y2U9)
inactive: crizotinib -0.11 | doramapimod 0.012

KLF3 (UniProt P57682)
inactive: crizotinib 0.059 | tozasertib 0.117 | doramapimod 0.243

KLHDC10 (UniProt Q6PID8)
inactive: pictilisib -0.079 | crizotinib -0.029 | [1] -0.024 | duvelisib -0.002 | gandotinib 0 | tozasertib -0.1 | doramapimod 0.039 | bafetinib -0.101 | [2] 0.052

KIF2A isoform 2 (UniProt O00139)
inactive: [1] 0.192 | gandotinib -0.059 | [2] -0.059

KIAA0586 isoform 3 (UniProt Q9BVV6)
inactive: crizotinib -0.068 | duvelisib 0.356 | doramapimod -0.057

Retrieved one by one from above (3):
KLHDC2 (UniProt Q9Y2U9)
inactive: crizotinib -0.11 | doramapimod 0.012

KDM4A (UniProt O75164)
inactive: pictilisib -0.043 | crizotinib 0.011 | [1] -0.06 | duvelisib -0.014 | gandotinib -0.015 | tozasertib 0.023 | doramapimod 0.016 | bafetinib -0.014 | [2] 0.056

LAMB2 (UniProt P55268)
inactive: duvelisib -0.015 | tozasertib 0.089

Remaining list, next part.

LARGE2 (UniProt Q8N3Y3)
inactive: [1] 0.152 | gandotinib -0.159 | [2] 0.254

KRI1 (UniProt Q8N9T8)
inactive: pictilisib -0.072 | crizotinib -0.057 | [1] 0.011 | duvelisib 0.036 | gandotinib -0.022 | tozasertib 0.014 | doramapimod 0.023 | bafetinib 0.009 | [2] 0.045

LANCL3 (UniProt Q6ZV70)
inactive: pictilisib -0.067 | [1] -0.023 | gandotinib -0.035 | tozasertib -0.041 | bafetinib -0.104 | [2] 0.077

KIF16B isoform 2 (UniProt Q96L93)
inactive: crizotinib 0.005 | [1] -0.118 | duvelisib 0.05 | gandotinib -0.009 | tozasertib 0.024 | doramapimod -0.044 | [2] 0.223

KLHL11 (UniProt Q9NVR0)
inactive: pictilisib -0.108 | crizotinib -0.023 | [1] -0.09 | duvelisib 0.061 | gandotinib 0.013 | tozasertib -0.047 | doramapimod -0.033 | bafetinib 0.008 | [2] 0.127

KIAA1586 (UniProt Q9HCI6)
inactive: pictilisib -0.031 | duvelisib 0.047 | bafetinib 0.034

KMT2B (UniProt Q9UMN6)
inactive: crizotinib 0.073 | duvelisib -0.034 | tozasertib 0.073 | doramapimod -0.033

KIF20B isoform 2 (UniProt Q96Q89)
inactive: crizotinib -0.054 | [1] -0.022 | duvelisib -0.051 | gandotinib 0.113 | tozasertib 0.024 | doramapimod 0.228 | [2] 0.073

KLHDC8B (UniProt Q8IXV7)
inactive: crizotinib -0.07 | duvelisib 0.028 | tozasertib 0.025 | doramapimod 0.006

L3MBTL2 (UniProt Q969R5)
inactive: crizotinib -0.034 | [1] 0.056 | duvelisib 0.123 | gandotinib -0.114 | tozasertib -0.109 | doramapimod -0.062 | [2] 0.184

KTN1 (UniProt G3V5Q0)
inactive: pictilisib -0.163 | tozasertib 0.087 | bafetinib 0.059

KREMEN1 isoform 2 (UniProt Q96MU8)
inactive: crizotinib 0.046 | doramapimod 0.15

KIAA1549 (UniProt Q9HCM3)
inactive: pictilisib -0.16 | bafetinib -0.446

KMT2E (UniProt Q8IZD2)
inactive: crizotinib -0.239 | [1] -0.23 | duvelisib 0.011 | gandotinib 0.063 | tozasertib 0.054 | doramapimod -0.001 | [2] -0.42

KLF13 (UniProt Q9Y2Y9)
inactive: crizotinib 0.177 | doramapimod 0.049
